Measurements published in the supplement of paper PMC12823440, “Inhibitors supercharge kinase turnover through native proteolytic circuits” (Nature, 2025).
The list shows a part of the results. The calls rarely recur for the same compound in another form.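 Kinases were expressed as nanoluciferase fusions in K562 cells and luminescence was read every 4 h between 2 and 18 h as percent of control, DMSO set to 100% and a positive control to 0%. A time point counts as decreased when the signal drops significantly (2 sigma). The hit call is the authors' own, does not follow from the count of time points alone, and its rule is not shown.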

By UniProt entry, the sequences of proteins in these tests, tags left out. Where a name states a change or a piece, a line headed by the entry shows the natural chain unless it says otherwise.
UniProt P07949, whole entry, looked up: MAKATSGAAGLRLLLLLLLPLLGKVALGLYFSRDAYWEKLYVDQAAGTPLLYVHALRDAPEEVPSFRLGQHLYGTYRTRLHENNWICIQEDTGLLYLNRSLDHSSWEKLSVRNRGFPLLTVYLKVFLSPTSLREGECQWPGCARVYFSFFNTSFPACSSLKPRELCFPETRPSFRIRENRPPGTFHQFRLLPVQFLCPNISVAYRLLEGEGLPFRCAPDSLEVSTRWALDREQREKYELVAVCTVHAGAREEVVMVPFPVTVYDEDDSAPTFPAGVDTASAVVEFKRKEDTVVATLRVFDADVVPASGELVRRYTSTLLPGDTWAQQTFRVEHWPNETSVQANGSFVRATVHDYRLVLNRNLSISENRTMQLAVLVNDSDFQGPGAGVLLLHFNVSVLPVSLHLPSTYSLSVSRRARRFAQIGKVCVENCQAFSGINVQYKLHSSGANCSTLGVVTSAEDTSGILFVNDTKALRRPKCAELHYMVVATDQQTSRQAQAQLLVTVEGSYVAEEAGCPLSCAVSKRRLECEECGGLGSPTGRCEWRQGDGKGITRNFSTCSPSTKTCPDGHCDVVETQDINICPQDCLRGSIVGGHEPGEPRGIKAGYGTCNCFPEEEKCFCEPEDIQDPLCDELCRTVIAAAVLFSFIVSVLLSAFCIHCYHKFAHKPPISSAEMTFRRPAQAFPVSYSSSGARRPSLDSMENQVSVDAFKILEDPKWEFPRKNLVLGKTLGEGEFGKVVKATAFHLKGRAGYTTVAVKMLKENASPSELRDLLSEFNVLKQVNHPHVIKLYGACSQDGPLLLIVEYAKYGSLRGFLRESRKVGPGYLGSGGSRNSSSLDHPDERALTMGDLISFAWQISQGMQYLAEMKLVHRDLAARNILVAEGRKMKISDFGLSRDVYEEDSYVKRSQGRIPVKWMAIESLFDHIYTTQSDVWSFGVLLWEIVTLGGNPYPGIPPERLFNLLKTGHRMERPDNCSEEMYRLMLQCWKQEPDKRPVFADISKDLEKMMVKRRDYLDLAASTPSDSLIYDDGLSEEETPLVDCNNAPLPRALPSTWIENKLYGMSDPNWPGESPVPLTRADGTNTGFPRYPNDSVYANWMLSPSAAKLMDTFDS
UniProt P07949, whole entry M918T, looked up: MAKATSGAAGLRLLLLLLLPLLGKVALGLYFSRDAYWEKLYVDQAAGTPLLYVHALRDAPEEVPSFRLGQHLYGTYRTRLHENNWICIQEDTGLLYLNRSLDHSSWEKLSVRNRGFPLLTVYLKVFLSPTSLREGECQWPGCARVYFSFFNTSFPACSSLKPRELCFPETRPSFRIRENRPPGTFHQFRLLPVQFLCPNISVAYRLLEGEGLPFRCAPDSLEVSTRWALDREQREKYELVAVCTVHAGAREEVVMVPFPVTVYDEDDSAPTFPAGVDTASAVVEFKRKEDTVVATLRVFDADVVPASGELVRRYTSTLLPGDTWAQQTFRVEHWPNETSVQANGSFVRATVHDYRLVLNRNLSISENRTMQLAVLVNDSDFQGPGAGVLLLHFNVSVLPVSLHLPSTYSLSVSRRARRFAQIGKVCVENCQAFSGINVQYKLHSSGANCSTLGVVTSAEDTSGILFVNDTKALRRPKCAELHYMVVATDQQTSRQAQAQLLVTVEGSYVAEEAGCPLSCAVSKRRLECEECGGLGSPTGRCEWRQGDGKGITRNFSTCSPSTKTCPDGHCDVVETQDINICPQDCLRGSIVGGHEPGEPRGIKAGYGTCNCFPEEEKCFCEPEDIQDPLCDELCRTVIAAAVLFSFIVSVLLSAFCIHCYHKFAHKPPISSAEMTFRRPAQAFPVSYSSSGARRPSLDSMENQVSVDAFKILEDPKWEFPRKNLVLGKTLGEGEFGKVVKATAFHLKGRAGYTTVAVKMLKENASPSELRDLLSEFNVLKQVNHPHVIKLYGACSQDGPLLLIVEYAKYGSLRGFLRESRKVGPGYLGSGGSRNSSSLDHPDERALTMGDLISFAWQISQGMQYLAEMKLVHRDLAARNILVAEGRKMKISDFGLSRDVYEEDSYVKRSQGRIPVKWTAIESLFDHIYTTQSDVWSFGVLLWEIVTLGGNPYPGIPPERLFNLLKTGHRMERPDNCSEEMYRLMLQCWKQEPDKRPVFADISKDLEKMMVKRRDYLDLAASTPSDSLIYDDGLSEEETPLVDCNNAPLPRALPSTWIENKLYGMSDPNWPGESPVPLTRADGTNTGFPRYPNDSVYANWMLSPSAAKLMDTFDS
UniProt Q9BRS2: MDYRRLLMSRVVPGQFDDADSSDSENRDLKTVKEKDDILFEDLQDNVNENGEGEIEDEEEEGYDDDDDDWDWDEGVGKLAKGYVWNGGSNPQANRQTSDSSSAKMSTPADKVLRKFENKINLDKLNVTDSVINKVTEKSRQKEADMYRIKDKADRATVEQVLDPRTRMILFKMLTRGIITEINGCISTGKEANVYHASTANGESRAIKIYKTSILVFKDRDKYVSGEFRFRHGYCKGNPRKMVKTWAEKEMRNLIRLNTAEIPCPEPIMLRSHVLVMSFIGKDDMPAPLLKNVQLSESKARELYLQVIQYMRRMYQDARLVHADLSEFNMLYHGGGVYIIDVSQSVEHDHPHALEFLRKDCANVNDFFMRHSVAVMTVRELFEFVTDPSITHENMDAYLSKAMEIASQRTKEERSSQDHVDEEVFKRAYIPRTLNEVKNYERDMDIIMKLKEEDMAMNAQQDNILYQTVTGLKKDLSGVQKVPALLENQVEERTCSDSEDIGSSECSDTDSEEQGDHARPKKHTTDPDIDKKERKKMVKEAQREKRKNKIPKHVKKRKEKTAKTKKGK
UniProt Q01974, whole entry: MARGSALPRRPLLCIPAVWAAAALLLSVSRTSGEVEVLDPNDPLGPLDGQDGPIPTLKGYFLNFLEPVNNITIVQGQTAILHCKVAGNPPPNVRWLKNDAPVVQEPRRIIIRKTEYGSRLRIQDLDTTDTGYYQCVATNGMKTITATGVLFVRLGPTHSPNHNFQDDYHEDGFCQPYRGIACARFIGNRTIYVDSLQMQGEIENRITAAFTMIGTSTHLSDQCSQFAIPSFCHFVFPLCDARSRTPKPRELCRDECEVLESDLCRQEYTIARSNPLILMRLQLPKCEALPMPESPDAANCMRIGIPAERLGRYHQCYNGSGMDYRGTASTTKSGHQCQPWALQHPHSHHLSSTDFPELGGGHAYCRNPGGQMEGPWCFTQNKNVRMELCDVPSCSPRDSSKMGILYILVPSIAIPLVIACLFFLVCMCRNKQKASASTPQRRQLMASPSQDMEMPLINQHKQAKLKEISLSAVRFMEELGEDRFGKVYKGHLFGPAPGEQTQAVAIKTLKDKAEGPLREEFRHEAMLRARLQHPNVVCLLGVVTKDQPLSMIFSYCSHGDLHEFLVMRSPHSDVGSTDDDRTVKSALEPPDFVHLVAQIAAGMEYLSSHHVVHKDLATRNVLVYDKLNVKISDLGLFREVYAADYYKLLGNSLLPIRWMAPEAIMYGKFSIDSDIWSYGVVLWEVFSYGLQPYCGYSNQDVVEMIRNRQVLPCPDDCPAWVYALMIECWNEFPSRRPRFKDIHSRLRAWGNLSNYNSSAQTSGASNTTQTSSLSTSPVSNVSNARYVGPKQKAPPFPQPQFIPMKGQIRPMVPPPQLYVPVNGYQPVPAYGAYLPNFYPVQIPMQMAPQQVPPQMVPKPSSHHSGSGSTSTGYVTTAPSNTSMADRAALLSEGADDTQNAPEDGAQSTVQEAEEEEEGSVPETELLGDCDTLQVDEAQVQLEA
UniProt Q15418, whole entry: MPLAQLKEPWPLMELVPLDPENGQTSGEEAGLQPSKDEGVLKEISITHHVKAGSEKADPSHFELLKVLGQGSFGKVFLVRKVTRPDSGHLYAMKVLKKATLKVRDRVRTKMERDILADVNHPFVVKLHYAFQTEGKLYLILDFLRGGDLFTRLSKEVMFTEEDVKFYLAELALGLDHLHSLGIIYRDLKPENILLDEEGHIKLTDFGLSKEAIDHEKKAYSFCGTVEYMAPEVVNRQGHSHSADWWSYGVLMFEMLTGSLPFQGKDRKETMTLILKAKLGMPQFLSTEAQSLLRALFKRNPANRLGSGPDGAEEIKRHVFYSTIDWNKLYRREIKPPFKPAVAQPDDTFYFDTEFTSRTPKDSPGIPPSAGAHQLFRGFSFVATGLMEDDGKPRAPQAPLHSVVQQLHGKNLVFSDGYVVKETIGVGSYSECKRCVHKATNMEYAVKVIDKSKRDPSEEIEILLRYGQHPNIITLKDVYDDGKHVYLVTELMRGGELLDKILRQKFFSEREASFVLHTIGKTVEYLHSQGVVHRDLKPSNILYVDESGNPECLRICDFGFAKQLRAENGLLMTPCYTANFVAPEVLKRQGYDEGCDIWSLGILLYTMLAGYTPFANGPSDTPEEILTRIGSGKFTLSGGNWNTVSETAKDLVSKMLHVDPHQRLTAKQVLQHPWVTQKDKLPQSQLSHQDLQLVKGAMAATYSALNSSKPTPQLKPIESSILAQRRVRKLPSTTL
UniProt P29597: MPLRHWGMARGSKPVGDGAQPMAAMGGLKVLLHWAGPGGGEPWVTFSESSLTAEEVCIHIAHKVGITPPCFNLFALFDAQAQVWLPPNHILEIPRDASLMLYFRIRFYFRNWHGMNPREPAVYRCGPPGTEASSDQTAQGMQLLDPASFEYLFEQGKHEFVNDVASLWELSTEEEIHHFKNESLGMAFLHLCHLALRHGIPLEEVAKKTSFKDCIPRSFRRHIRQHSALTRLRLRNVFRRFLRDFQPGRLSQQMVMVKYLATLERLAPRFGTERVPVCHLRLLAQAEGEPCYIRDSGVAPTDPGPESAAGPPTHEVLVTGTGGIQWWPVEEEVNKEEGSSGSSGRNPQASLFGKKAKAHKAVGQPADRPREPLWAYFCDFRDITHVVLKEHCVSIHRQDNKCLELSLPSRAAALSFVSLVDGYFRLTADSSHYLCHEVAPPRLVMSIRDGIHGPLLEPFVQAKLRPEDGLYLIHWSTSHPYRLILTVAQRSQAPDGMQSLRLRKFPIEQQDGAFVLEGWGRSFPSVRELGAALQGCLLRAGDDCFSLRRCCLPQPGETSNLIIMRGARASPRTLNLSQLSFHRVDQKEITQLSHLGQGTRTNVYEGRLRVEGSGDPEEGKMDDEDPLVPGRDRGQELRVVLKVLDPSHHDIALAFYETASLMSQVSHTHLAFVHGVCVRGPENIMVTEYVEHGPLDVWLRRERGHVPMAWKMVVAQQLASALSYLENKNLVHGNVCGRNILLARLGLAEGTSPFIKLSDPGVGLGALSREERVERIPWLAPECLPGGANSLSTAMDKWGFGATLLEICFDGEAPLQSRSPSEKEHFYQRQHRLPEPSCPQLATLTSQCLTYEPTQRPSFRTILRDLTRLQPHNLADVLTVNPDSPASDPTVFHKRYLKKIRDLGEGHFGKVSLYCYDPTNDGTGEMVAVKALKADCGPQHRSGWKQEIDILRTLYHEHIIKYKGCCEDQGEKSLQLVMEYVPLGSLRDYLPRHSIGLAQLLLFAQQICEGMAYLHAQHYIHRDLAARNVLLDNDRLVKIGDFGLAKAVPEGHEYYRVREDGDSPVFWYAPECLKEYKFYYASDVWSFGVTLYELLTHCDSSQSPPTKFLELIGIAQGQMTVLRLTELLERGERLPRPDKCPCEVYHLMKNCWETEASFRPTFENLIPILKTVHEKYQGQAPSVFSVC

How the values were obtained:
Assay in all cases: number of time points (of 5) at which kinase-Nluc abundance scored as decreased, DMSO-normalised (count); higher = more persistent destabilization
Settings in all cases: K562; 2-18 h
PRKCA = PRKCA (UniProt P17252)
PTK2 = PTK2 (UniProt Q05397)
PTK2B = PTK2B (UniProt Q14289)
RAF1 = RAF1 (UniProt P04049)
[1] = target: RAF1_S257L (clone: RAF1_mut) (UniProt P04049)
RET = RET (UniProt P07949)
[2] = target: RET_M918T (clone: RET_mut) (UniProt P07949)
RIOK1 = RIOK1 (UniProt Q9BRS2)
RIPK1 = RIPK1 (UniProt Q13546)
RIPK2 = RIPK2 (UniProt O43353)
ROR2 = ROR2 (UniProt Q01974)
RPS6KA1 = RPS6KA1 (UniProt Q15418)
SPHK1 = SPHK1 (UniProt Q9NYA1)
SRC = SRC (UniProt P12931)
STK24 = STK24 (UniProt Q9Y6E0)
STK38 = STK38 (UniProt Q15208)
SYK = SYK (UniProt P43405)
TEC = TEC (UniProt P42680)
TYK2 = TYK2 (UniProt P29597)
ULK3 = ULK3 (UniProt Q6PHR2)

Measured: number of time points

C[C@H](Nc1ncnc2nc[nH]c12)c1cc2cccc(Cl)c2c(=O)n1-c1ccccc1 [Duvelisib] (10 µM)
0: all assays above

Cc1cc(C)nc(NS(=O)(=O)c2ccc(NC(=S)NC(=O)COc3ccc(Br)cc3Cl)cc2)n1 (2.5 µM)
0: all assays above

Cc1ncc(NC(=O)NC2c3ccccc3-c3ccccc32)c(-c2ccccc2)n1 (10 µM)
0: all assays above

Oc1ccc(/C=C/c2cc(O)cc(F)c2)cc1 [Resveratrol analog 1] (10 µM)
0: all assays above

O=c1cc(N2CCOCC2)nc2c3ccccc3ccn12 [Compound 401] (10 µM)
3: [1]
0: all other assays above

COc1ccc(/C=C/C(=O)C2(C(=O)/C=C/c3ccc(OC)c(OC)c3)CCCCC2)cc1OC (2.5 µM)
1: ULK3
2: TYK2
0: all other assays above

Nc1nccc(Oc2ccc(NC(=O)c3c[nH]cc(-c4ccc(F)cc4)c3=O)cc2F)c1Cl (10 µM)
3: PTK2 | RAF1 | TYK2
5: ULK3
1: SPHK1 | STK38
0: all other assays above

O=[N+]([O-])c1ccc2c(c1)S(=O)(=O)C=C2 [Stattic] (2.5 µM)
1: RAF1
3: RIPK1 | RIPK2 | TYK2
0: all other assays above

COc1c(Nc2cc(C)[nH]n2)nc(Sc2ccc(S(=O)(=O)Cc3cccc([N+](=O)[O-])c3F)cc2F)nc1N1CCCCC1 [Centrinone-B] (2.5 µM)
4: SPHK1
0: all other assays above

CC/C(=N\NC(=O)c1ccnc(NCCCN2CCOCC2)c1)c1ccc(Cl)cc1O (2.5 µM)
0: all assays above

COc1cc2ncnc(Nc3ccc(F)c(Cl)c3)c2cc1NC(=O)/C=C/CN1CCCCC1 [Dacomitinib] (10 µM)
1: TYK2
0: all other assays above

CN1C(=O)[C@@H](NC(=O)c2n[nH]c(Cc3ccccc3)n2)COc2ccccc21 (10 µM)
0: all assays above

CS(=O)(=O)c1ccc(-c2cnc(N)c(-c3ccc(C(F)(F)F)nc3)c2)cc1 (10 µM)
0: all assays above

CCCCCCCC/C=C\CCCCCCCCCCCC(=O)O [Erucic acid] (10 µM)
0: all assays above

3 compounds out of the list, sorted by count of non-hydrogen atoms, smallest number first:
CCCCCCCC/C=C\CCCCCCCCCCCC(=O)O [Erucic acid] (10 µM)
0: all assays above

CS(=O)(=O)c1ccc(-c2cnc(N)c(-c3ccc(C(F)(F)F)nc3)c2)cc1 (10 µM)
0: all assays above

CC/C(=N\NC(=O)c1ccnc(NCCCN2CCOCC2)c1)c1ccc(Cl)cc1O (2.5 µM)
0: all assays above

(listing goes on)

Cn1cc2cc(C(F)(F)c3nnc4ccc(-c5cnn(C6CC6)c5)nn34)c(F)cc2n1 [Bozitinib] (10 µM)
0: all assays above

CCc1cccc(CC)c1NC(=O)N1Cc2[nH]nc(NC(=O)c3ccc(N4CCN(C)CC4)cc3)c2C1 (2.5 µM)
3: [1] | RET | RIPK2 | TYK2 | ULK3
1: PTK2B | [2]
2: PTK2 | RAF1 | RIOK1 | RIPK1
0: all other assays above

FC(F)(F)c1ccc(/C=C/c2nc(COc3ccc(CCCCn4ccnn4)cc3)co2)cc1 [Mubritinib] (10 µM)
1: PTK2
2: RIPK1 | TEC
3: RET | [2]
0: all other assays above

Nc1c(C(=O)NCc2ccc(C(=O)NCCCC3CCCCC3)cc2)cnn1-c1ccccc1 (2.5 µM)
0: all assays above

CCN(CC)c1ccc2cc(-c3nc4cc(C)ccc4o3)c(=O)oc2c1 (10 µM)
0: all assays above

Cc1ccc2c(Nc3cccc(Cl)c3F)nccc2c1NC(=O)c1csc2c(N)ncnc12 [Belvarafenib] (10 µM)
0: all assays above

COc1cc(-c2cn[nH]c2)ccc1C(=O)Nc1ccc2c(c1)CCNCC2 (10 µM)
0: all assays above

CC(=O)N1CCC(c2cc(-c3ccc(NC(=O)c4cccn(-c5ccc(F)cc5)c4=O)cc3F)c3c(N)ncnn23)CC1 (0.5 µM)
0: all assays above

CC(C)=CC(=O)O[C@H]1Cc2cc3ccc(=O)oc3cc2OC1(C)C [Decursin] (10 µM)
0: all assays above
